# According to the supplement of paper PMC12067093, “Discovery and optimisation of a covalent ligand for TRIM25 and its application to targeted protein ubiquitination” (Chemical Science, 2025):
# Amino acid sequences for entries named in this document (tags omitted). A change or cut given only in a name is not applied to a line headed by its entry.
# UniProt P48163: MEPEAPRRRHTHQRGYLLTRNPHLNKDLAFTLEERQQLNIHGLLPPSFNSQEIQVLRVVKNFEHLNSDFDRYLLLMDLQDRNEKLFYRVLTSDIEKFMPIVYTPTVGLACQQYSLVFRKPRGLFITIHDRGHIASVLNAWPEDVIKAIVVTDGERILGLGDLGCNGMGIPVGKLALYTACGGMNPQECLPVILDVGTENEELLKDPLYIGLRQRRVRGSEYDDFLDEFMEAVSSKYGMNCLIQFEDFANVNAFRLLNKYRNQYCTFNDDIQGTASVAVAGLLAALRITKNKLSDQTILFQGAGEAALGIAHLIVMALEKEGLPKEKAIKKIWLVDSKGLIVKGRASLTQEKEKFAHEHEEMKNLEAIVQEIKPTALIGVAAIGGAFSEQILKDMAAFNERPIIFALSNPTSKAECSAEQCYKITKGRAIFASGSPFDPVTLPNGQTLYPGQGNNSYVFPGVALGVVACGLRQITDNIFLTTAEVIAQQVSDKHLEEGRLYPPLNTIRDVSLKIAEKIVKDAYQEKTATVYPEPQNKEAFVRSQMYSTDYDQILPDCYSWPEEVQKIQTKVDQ
# UniProt P16455, whole entry, looked up: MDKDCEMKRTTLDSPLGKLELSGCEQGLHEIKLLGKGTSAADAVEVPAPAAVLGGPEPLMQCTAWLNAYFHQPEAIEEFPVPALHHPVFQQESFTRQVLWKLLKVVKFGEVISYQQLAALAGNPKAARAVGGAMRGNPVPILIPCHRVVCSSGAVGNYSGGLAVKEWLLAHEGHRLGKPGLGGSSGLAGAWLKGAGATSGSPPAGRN
# UniProt Q96IZ6: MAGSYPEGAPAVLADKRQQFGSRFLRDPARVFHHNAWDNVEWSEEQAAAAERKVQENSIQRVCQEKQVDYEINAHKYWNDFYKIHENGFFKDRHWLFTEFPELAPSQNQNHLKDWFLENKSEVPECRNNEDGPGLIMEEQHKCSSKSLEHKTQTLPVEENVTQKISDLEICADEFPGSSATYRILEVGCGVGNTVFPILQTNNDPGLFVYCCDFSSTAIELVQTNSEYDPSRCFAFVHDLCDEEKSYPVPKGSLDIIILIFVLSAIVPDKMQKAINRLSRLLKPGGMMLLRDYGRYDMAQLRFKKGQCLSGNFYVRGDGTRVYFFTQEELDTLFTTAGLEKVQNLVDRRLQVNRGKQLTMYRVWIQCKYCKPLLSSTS
# UniProt P49736, whole entry, looked up: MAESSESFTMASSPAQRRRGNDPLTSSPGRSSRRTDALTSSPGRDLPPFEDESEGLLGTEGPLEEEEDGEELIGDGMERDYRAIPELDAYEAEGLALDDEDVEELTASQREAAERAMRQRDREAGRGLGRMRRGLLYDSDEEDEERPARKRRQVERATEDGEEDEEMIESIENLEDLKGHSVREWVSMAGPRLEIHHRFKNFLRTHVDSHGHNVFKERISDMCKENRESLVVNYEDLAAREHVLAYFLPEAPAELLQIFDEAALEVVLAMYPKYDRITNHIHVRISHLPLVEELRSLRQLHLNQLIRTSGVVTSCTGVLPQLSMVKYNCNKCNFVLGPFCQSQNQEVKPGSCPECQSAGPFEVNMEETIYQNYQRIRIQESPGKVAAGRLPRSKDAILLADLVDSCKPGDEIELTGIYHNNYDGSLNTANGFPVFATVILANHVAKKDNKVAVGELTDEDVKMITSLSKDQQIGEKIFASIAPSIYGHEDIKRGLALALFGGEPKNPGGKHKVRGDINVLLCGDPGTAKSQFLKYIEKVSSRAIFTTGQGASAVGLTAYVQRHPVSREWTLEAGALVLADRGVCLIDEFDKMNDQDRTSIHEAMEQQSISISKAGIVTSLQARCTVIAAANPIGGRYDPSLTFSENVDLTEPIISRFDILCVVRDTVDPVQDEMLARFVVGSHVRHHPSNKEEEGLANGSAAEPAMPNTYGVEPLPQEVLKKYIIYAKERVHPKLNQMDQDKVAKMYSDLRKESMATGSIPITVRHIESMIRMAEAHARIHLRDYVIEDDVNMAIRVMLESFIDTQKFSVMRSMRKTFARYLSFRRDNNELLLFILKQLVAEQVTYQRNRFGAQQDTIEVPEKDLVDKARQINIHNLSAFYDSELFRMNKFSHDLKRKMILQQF
# UniProt P08582: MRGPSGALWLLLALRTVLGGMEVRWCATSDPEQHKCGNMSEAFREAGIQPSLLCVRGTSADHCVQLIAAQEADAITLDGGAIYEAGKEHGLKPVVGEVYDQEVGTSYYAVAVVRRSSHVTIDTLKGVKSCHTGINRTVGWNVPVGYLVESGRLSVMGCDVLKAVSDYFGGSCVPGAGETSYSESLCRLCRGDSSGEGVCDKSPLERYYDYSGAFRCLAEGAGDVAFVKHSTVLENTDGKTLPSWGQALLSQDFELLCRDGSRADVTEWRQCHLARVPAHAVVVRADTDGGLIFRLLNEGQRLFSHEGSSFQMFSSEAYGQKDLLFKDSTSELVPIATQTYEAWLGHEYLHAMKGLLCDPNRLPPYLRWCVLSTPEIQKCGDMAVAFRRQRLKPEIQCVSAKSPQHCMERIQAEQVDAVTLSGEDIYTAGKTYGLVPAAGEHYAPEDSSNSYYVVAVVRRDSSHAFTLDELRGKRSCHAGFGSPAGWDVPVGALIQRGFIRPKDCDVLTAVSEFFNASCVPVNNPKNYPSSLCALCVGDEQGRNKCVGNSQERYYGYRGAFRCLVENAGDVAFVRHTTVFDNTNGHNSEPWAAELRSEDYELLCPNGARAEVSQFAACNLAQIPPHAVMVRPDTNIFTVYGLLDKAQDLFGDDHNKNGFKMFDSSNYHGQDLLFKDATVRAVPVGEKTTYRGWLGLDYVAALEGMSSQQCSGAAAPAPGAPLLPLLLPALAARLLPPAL
# UniProt Q9HCE5: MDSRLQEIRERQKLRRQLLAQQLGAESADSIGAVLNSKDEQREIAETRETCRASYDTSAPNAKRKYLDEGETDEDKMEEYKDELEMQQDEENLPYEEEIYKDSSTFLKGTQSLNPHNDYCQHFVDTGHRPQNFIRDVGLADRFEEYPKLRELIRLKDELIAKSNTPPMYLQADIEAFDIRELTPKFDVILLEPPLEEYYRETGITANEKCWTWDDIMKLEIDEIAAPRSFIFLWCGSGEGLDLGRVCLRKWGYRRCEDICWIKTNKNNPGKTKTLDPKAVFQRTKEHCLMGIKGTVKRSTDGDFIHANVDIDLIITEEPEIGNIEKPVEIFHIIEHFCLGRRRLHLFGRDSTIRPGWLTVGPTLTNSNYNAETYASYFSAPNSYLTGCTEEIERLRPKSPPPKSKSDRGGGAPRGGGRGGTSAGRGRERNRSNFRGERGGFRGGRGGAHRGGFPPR
# UniProt Q9UHV7: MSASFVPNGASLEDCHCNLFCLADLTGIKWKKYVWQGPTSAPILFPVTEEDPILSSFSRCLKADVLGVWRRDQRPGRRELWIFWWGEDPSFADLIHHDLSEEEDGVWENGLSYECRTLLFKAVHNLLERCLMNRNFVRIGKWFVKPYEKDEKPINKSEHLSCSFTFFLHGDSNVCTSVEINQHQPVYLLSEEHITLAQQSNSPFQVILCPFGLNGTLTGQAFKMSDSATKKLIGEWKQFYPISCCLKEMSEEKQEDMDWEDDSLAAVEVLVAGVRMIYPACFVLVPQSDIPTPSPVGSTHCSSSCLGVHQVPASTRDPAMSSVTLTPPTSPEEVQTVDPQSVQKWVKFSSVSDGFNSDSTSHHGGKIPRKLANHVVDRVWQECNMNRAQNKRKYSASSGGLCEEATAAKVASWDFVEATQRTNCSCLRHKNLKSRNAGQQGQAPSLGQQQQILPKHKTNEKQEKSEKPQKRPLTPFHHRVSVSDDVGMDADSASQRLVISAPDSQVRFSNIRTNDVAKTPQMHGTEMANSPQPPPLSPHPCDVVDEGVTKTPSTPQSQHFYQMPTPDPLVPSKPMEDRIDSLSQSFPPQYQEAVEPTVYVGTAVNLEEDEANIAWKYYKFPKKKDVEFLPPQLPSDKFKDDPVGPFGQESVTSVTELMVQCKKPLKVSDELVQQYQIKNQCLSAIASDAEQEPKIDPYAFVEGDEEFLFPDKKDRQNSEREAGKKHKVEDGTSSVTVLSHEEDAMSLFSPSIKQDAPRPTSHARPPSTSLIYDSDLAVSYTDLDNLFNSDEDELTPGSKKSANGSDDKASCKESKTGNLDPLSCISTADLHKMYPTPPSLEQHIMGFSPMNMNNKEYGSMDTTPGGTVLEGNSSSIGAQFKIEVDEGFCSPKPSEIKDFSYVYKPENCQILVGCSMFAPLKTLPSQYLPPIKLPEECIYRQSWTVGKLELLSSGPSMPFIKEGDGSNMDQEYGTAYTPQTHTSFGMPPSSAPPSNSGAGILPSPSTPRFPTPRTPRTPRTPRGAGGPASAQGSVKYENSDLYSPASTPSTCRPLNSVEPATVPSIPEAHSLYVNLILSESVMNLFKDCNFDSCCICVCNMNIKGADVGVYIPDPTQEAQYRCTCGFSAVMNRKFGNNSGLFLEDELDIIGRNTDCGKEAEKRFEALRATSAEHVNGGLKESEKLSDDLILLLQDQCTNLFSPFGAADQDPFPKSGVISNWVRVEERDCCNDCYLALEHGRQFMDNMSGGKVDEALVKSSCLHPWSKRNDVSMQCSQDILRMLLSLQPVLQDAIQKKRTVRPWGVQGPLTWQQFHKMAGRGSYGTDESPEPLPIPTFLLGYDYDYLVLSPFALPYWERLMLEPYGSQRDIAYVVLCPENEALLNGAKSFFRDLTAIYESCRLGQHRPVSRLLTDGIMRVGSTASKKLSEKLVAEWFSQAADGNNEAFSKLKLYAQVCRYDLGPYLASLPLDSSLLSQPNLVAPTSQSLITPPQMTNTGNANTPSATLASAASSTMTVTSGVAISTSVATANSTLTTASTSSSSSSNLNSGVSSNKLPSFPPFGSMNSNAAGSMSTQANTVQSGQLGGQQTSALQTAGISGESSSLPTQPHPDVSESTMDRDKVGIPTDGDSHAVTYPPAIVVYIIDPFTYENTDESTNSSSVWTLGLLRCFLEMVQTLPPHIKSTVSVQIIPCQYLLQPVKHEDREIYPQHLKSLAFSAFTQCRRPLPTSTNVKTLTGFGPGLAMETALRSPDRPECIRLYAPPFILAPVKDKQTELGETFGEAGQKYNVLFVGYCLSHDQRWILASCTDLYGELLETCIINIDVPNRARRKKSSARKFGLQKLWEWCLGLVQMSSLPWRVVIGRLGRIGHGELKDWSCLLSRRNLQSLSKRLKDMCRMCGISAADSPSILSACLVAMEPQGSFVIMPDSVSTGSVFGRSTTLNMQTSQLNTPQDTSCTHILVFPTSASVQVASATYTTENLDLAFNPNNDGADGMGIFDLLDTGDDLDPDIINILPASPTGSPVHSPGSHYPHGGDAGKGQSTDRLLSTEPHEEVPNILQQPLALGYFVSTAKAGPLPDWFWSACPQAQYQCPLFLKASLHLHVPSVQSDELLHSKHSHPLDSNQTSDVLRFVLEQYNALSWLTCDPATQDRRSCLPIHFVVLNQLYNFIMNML
# UniProt Q7L2J0: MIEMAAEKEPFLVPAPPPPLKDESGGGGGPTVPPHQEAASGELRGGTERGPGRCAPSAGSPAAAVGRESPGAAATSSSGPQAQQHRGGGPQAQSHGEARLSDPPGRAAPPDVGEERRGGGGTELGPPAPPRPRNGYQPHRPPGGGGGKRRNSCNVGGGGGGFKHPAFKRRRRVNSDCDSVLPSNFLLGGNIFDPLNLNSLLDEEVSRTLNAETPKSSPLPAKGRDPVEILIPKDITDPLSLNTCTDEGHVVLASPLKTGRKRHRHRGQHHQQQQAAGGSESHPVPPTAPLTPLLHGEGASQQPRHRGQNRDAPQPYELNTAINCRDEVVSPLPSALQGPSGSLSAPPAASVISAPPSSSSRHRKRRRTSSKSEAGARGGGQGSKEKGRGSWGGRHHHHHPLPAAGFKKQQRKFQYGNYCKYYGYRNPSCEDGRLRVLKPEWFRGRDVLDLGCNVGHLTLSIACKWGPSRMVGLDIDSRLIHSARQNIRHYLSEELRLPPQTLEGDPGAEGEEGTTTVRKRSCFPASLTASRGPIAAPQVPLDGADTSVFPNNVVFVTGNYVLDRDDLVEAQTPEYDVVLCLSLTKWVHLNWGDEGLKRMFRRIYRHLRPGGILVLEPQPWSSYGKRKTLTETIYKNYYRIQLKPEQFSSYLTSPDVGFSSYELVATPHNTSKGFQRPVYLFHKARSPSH
# UniProt Q9Y316: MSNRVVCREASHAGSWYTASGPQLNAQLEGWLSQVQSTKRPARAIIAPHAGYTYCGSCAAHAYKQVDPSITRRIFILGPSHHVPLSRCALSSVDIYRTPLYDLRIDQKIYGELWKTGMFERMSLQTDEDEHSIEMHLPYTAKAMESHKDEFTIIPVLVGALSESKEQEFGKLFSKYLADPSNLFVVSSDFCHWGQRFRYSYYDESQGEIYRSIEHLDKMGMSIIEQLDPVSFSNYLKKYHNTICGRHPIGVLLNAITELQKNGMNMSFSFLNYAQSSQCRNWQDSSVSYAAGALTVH
# Some of the results follow.
# Compound: Cc1cc(ccc1-c1ccccc1)C(=O)N1CCCN(CC1)C(=O)CCl [compound 10]
# Assay: probe-labelled cysteine peptide fold change vs DMSO (competition) (log2 fold change); higher = less target engagement (more negative = stronger competition)
# Conditions: THP-1, incubation time: 4 h
# 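Further: competitive profiling in live THP-1 cells: cysteine peptides tagged with an iodoacetamide desthiobiotin (IA-DTB) probe, intensity after compound treatment relative to DMSO-treated cells.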
Target,probe-labelled cysteine peptide fold change (10 µM),probe-labelled cysteine peptide fold change (50 µM)
ME1_P48163_240_YGMNCLIQFEDFANVNAFR (UniProt P48163),0.0931,0.17
MGMT_P16455_24_LELSGCEQGLHEIK (UniProt P16455),-0.596,-0.52
METAP1_P53582_36+40_LGIQGSYFCSQECFK (UniProt P53582),-0.0731,-0.313
METTL2A_Q96IZ6_126_SEVPECR (UniProt Q96IZ6),-0.0847,-0.226
MCM2_P49736_522_VRGDINVLLCGDPGTAK (UniProt P49736),0.00744,-0.0303
METAP1_P53582_174_PGVTTEEIDHAVHLACIAR (UniProt P53582),0.143,0.146
MCM3AP_O60318_439_SESTDSLGGLSPSEVTAIQCK (UniProt O60318),-0.0959,-0.165
MELTF_P08582_216_CLAEGAGDVAFVK (UniProt P08582),-0.137,0.00108
METTL14_Q9HCE5_256+260_CEDICWIK (UniProt Q9HCE5),-0.0382,-0.163
MCM3AP_O60318_588_AHQFEGDSFDSASEGSEGLGPCVLSLSTLIGTVAETSK (UniProt O60318),-0.0827,-0.444
MED13_Q9UHV7_681_NQCLSAIASDAEQEPK (UniProt Q9UHV7),0.327,0.0925
MEPCE_Q7L2J0_244_DITDPLSLNTCTDEGHVVLASPLK (UniProt Q7L2J0),0.0803,-0.237
MEMO1_Q9Y316_55+58_AIIAPHAGYTYCGSCAAHAYK (UniProt Q9Y316),-0.0774,-0.354
MDN1_Q9NU22_882_LFACMNPATDVGKR (UniProt Q9NU22),-0.152,-0.12
